{
  "sequences": {"note": "Amino acid sequences for entries named in this document (tags omitted).", "EP400, Q96L91, UniProt Q96L91, whole entry": "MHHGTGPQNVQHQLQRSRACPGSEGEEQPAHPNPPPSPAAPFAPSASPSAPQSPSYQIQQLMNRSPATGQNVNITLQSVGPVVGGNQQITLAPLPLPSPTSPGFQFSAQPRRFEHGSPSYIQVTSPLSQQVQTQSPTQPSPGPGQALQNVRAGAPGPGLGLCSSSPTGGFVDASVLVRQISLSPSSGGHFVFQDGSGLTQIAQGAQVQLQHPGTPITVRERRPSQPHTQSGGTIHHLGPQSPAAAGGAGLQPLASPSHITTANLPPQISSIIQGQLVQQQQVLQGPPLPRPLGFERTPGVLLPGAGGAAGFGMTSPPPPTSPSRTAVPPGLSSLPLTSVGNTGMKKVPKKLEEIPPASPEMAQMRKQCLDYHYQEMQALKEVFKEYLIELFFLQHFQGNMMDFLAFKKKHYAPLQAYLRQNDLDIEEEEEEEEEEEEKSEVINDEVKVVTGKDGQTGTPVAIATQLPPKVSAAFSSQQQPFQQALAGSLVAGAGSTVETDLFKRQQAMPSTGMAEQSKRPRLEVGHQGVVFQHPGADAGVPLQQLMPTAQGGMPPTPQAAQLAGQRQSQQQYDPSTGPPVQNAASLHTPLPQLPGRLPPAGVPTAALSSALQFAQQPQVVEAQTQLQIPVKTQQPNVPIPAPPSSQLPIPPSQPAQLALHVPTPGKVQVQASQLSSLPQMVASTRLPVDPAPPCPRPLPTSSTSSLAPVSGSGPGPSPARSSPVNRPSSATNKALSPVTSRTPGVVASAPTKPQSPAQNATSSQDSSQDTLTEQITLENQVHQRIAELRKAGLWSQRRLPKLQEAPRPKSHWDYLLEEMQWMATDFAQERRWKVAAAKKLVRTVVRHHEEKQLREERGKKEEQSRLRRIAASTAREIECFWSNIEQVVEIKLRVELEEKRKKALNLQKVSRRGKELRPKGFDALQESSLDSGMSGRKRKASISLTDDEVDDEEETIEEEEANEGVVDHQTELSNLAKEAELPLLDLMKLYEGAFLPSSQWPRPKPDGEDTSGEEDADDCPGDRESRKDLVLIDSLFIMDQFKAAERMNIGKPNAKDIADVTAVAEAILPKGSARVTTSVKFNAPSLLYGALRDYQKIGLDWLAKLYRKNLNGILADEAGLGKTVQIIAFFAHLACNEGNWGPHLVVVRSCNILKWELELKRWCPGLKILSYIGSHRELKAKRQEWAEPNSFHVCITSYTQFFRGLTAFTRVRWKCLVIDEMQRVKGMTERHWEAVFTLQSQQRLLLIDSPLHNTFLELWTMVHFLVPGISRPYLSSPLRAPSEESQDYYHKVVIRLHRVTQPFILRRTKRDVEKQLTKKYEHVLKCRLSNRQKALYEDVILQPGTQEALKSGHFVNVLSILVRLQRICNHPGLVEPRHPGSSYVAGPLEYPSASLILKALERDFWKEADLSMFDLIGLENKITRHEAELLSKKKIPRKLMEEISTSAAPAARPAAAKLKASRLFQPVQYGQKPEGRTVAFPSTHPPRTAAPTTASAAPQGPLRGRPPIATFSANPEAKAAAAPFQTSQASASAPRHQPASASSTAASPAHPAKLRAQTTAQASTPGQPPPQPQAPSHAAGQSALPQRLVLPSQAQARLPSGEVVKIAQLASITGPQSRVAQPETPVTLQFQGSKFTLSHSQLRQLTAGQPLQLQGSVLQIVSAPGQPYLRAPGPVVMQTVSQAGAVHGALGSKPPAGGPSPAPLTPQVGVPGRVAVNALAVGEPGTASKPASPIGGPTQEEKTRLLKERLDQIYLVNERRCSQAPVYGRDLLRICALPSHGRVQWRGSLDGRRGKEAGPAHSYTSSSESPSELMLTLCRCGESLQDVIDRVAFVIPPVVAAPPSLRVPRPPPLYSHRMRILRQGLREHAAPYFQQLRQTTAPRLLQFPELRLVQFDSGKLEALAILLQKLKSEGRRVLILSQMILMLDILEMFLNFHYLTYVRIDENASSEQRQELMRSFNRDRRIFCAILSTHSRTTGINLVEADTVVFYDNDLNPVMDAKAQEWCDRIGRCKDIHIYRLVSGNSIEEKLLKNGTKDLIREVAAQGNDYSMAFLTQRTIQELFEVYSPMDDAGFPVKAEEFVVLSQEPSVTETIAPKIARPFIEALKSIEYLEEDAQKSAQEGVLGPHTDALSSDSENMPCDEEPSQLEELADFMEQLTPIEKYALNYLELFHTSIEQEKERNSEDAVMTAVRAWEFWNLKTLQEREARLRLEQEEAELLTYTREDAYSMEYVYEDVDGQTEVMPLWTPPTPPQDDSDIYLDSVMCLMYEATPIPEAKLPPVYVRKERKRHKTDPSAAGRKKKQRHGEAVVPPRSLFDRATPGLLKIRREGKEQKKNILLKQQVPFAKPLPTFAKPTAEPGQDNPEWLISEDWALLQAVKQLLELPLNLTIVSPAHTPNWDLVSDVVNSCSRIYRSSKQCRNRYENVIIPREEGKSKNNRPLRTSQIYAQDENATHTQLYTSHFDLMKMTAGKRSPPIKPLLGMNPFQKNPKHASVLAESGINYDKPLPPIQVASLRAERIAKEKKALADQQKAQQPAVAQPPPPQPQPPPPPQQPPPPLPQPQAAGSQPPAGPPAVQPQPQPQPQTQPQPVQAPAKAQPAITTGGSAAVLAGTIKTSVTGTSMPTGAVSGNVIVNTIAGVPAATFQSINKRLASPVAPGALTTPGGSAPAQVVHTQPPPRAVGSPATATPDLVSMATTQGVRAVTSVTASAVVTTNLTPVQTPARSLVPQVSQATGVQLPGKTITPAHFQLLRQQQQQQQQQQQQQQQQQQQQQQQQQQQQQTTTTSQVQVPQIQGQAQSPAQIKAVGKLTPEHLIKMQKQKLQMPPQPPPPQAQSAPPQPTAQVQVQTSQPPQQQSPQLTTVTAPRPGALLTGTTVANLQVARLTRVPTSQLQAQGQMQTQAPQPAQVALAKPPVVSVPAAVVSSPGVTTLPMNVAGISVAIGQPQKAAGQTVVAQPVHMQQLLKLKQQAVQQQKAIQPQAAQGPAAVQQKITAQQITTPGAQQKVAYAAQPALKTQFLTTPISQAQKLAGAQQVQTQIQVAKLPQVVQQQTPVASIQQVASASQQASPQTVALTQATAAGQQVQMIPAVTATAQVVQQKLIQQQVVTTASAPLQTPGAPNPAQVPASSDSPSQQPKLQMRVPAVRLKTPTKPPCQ", "PPP2R5D, Q14738, UniProt Q14738, whole entry": "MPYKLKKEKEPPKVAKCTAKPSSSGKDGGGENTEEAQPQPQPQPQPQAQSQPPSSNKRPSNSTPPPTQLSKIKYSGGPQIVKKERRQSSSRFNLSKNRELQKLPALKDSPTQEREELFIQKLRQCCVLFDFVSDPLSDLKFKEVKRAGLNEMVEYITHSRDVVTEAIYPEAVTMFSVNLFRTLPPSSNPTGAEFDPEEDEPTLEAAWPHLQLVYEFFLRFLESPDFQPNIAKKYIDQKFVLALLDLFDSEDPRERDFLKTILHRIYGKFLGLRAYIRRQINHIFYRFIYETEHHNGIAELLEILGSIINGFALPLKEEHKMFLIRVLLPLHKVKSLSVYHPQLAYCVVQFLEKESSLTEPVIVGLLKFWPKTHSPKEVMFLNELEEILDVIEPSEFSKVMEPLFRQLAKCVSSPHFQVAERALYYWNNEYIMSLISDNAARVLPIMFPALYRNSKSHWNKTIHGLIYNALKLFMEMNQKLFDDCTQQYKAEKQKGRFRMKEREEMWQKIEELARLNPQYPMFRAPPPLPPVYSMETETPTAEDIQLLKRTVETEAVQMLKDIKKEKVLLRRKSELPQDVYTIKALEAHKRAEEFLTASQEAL", "TFG, Q92734, UniProt Q92734, whole entry": "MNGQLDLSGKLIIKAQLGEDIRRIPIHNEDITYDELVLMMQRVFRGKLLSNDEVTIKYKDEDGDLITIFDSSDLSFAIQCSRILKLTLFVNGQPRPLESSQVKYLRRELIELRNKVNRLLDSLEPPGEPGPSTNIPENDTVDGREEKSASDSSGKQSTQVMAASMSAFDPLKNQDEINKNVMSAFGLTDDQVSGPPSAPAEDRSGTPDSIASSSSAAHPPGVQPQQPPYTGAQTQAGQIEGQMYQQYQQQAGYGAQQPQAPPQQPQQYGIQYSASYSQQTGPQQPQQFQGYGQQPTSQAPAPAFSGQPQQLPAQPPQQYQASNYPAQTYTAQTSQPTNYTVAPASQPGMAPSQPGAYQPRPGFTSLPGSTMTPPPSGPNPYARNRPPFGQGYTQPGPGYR", "ATP6V0D1, P61421, UniProt P61421, whole entry": "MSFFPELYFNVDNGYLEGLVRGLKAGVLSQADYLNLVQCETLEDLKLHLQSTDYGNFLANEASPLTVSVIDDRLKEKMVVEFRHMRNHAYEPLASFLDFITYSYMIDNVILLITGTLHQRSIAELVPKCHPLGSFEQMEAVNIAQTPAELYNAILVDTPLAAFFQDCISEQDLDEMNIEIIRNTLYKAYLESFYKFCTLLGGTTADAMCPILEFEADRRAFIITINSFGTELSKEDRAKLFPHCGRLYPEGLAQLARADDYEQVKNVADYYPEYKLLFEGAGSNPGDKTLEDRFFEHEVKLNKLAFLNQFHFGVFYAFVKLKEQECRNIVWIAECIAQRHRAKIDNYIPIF", "AURKB, Q96GD4, UniProt Q96GD4, whole entry": "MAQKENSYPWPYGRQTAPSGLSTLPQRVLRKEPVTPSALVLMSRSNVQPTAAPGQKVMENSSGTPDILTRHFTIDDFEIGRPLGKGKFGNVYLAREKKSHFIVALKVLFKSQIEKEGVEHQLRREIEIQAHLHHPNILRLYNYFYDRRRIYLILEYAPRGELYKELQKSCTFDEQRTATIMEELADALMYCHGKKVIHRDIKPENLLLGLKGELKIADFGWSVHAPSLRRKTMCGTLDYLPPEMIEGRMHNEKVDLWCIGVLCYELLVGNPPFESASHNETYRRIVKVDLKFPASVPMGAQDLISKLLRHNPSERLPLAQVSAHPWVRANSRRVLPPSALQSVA", "CDC27, P30260, UniProt P30260, whole entry": "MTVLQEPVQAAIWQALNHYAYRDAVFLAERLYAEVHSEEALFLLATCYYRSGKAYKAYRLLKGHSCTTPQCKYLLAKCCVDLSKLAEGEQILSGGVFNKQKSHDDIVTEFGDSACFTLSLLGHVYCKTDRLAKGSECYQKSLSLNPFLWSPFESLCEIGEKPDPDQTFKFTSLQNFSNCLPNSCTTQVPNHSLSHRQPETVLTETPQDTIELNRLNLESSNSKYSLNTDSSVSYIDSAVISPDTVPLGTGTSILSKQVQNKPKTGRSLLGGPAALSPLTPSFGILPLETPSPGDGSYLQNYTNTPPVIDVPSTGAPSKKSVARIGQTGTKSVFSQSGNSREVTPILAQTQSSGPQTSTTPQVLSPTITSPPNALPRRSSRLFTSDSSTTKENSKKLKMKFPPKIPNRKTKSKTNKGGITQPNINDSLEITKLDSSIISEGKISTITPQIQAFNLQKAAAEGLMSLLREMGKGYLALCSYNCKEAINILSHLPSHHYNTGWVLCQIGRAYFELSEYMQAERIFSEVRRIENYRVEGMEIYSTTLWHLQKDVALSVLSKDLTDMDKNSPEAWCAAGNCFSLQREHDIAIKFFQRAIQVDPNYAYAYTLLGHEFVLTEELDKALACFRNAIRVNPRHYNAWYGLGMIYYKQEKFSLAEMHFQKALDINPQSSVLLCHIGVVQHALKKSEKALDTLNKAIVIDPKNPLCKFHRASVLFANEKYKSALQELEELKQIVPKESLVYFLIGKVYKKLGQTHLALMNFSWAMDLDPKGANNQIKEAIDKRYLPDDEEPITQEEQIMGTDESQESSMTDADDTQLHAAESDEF", "CFDP1, Q9UEE9, UniProt Q9UEE9, whole entry": "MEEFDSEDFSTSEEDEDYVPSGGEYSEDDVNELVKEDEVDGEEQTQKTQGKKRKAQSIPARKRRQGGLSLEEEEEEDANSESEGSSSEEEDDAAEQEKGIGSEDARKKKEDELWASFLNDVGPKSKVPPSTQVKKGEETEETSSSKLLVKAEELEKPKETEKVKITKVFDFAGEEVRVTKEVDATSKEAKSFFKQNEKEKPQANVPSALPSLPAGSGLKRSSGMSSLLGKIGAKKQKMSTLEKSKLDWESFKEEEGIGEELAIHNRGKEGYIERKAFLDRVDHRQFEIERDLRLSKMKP", "MAGOHB, Q96A72, UniProt Q96A72, whole entry": "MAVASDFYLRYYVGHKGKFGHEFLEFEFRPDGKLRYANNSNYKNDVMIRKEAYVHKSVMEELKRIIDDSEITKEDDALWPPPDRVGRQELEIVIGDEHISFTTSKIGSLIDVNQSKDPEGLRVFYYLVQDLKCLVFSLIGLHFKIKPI", "WDR82, Q6UXN9, UniProt Q6UXN9, whole entry": "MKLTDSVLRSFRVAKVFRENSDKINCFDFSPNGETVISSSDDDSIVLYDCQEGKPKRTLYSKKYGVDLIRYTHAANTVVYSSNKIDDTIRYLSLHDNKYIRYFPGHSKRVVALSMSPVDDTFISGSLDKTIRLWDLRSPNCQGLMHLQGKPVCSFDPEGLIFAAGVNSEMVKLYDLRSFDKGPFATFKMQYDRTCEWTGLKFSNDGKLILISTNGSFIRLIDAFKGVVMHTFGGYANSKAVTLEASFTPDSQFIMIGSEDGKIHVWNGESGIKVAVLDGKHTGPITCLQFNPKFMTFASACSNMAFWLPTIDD"},
  "source": "the supplement of paper PMC10032668",
  "test_in_all_cases": "PRISMA enrichment of interactor (LFQ) in peptide spot vs all other peptide spots (log2 fold change); higher = stronger / more specific binding of the interactor to the peptide",
  "key": {"ASNS, P08243": {"target": "ASNS, P08243", "description": "(§1)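 PRISMA: 15-aa overlapping tiles (offset 8 aa) of 60 microproteins, plus SOS1/GLUT1 control peptides, were spot-synthesized on cellulose membranes in triplicate. Membranes were incubated with benzonase-treated HEK293T lysate, and bound proteins were identified by LC-MS/MS with LFQ. Enrichment is the log2 fold change of each protein in one spot versus all other spots. Only interactors passing the significance cutoff are listed.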"}, "C19orf53, Q9UNZ5": {"target": "C19orf53, Q9UNZ5", "description": "as §1"}, "EP400, Q96L91": {"target": "EP400, Q96L91", "description": "as §1"}, "EXOC3, O60645": {"target": "EXOC3, O60645", "description": "as §1"}, "FLII, Q13045": {"target": "FLII, Q13045", "description": "as §1"}, "FN1, P02751": {"target": "FN1, P02751", "description": "as §1"}, "GPS1, Q13098": {"target": "GPS1, Q13098", "description": "as §1"}, "LRRC40, Q9H9A6": {"target": "LRRC40, Q9H9A6", "description": "as §1"}, "MAGT1, Q9H0U3": {"target": "MAGT1, Q9H0U3", "description": "as §1"}, "MAP7D2, Q96T17": {"target": "MAP7D2, Q96T17", "description": "as §1"}, "MUC19, Q7Z5P9": {"target": "MUC19, Q7Z5P9", "description": "as §1"}, "NSDHL, Q15738": {"target": "NSDHL, Q15738", "description": "as §1"}, "PDP1, Q9P0J1": {"target": "PDP1, Q9P0J1", "description": "as §1"}, "[1]": {"substrate": "PPIF, P30405", "description": "as §1"}, "PPP2R5D, Q14738": {"target": "PPP2R5D, Q14738", "description": "as §1"}, "RPS19BP1, Q86WX3": {"target": "RPS19BP1, Q86WX3", "description": "as §1"}, "SDAD1, Q9NVU7": {"target": "SDAD1, Q9NVU7", "description": "as §1"}, "SEMG2, Q02383": {"target": "SEMG2, Q02383", "description": "as §1"}, "TFB1M, Q8WVM0": {"target": "TFB1M, Q8WVM0", "description": "as §1"}, "TFG, Q92734": {"target": "TFG, Q92734", "description": "as §1"}, "TMEM109, Q9BVC6": {"target": "TMEM109, Q9BVC6", "description": "as §1"}, "TRMT112, Q9UI30": {"target": "TRMT112, Q9UI30", "description": "as §1"}, "U2SURP, O15042": {"target": "U2SURP, O15042", "description": "as §1"}, "UTP20, O75691": {"target": "UTP20, O75691", "description": "as §1"}, "WDR46, O15213": {"target": "WDR46, O15213", "description": "as §1"}, "ATP2C1, P98194": {"target": "ATP2C1, P98194", "description": "as §1"}, "ATP6V0D1, P61421": {"target": "ATP6V0D1, P61421", "description": "as §1"}, "AURKB, Q96GD4": {"target": "AURKB, Q96GD4", "description": "as §1"}, "CDC27, P30260": {"target": "CDC27, P30260", "description": "as §1"}, "CFDP1, Q9UEE9": {"target": "CFDP1, Q9UEE9", "description": "as §1"}, "CHD4, Q14839": {"target": "CHD4, Q14839", "description": "as §1"}, "CIAO1, O76071": {"target": "CIAO1, O76071", "description": "as §1"}, "COPB2, P35606": {"target": "COPB2, P35606", "description": "as §1"}, "CSDE1, O75534": {"target": "CSDE1, O75534", "description": "as §1"}, "HP, P00738": {"target": "HP, P00738", "description": "as §1"}, "MAGOHB, Q96A72": {"target": "MAGOHB, Q96A72", "description": "as §1"}, "MORF4L2, Q15014": {"target": "MORF4L2, Q15014", "description": "as §1"}, "MRPL16, Q9NX20": {"target": "MRPL16, Q9NX20", "description": "as §1"}, "MRPL41, Q8IXM3": {"target": "MRPL41, Q8IXM3", "description": "as §1"}, "NEFM, P07197": {"target": "NEFM, P07197", "description": "as §1"}, "PEX11B, O96011": {"target": "PEX11B, O96011", "description": "as §1"}, "SRPK2, P78362": {"target": "SRPK2, P78362", "description": "as §1"}, "TAOK2, Q9UL54": {"target": "TAOK2, Q9UL54", "description": "as §1"}, "TIMM8A, O60220": {"target": "TIMM8A, O60220", "description": "as §1"}, "TMEM214, Q6NUQ4": {"target": "TMEM214, Q6NUQ4", "description": "as §1"}, "TTN, Q8WZ42": {"target": "TTN, Q8WZ42", "description": "as §1"}, "UBXN7, O94888": {"target": "UBXN7, O94888", "description": "as §1"}, "UTP15, Q8TED0": {"target": "UTP15, Q8TED0", "description": "as §1"}, "WDCP, Q9H6R7": {"target": "WDCP, Q9H6R7", "description": "as §1"}, "WDR82, Q6UXN9": {"target": "WDR82, Q6UXN9", "description": "as §1"}},
  "note": "The list shows a part of the results. Only hits are listed; about a third recur on repeated control peptides.",
  "data": [
    {"binder": "GMSIQFPLLRDLVTE", "note": "[RP1-206D15.6]", "values": [
      {"measurement": "PRISMA enrichment of interactor (log2)", "setting": "ASNS, P08243", "result": 6.4},
      {"measurement": "PRISMA enrichment of interactor (log2)", "setting": "C19orf53, Q9UNZ5", "result": 6.73},
      {"measurement": "PRISMA enrichment of interactor (log2)", "setting": "EP400, Q96L91", "result": 6.18},
      {"measurement": "PRISMA enrichment of interactor (log2)", "setting": "EXOC3, O60645", "result": 4.59},
      {"measurement": "PRISMA enrichment of interactor (log2)", "setting": "FLII, Q13045", "result": 5.86},
      {"measurement": "PRISMA enrichment of interactor (log2)", "setting": "FN1, P02751", "result": 7.78},
      {"measurement": "PRISMA enrichment of interactor (log2)", "setting": "GPS1, Q13098", "result": 4.35},
      {"measurement": "PRISMA enrichment of interactor (log2)", "setting": "LRRC40, Q9H9A6", "result": 6.86},
      {"measurement": "PRISMA enrichment of interactor (log2)", "setting": "MAGT1, Q9H0U3", "result": 5.53},
      {"measurement": "PRISMA enrichment of interactor (log2)", "setting": "MAP7D2, Q96T17", "result": 5.21},
      {"measurement": "PRISMA enrichment of interactor (log2)", "setting": "MUC19, Q7Z5P9", "result": 7.2},
      {"measurement": "PRISMA enrichment of interactor (log2)", "setting": "NSDHL, Q15738", "result": 4.23},
      {"measurement": "PRISMA enrichment of interactor (log2)", "setting": "PDP1, Q9P0J1", "result": 5.36},
      {"measurement": "PRISMA enrichment of interactor (log2)", "setting": "[1]", "result": 4.79},
      {"measurement": "PRISMA enrichment of interactor (log2)", "setting": "PPP2R5D, Q14738", "result": 8.9},
      {"measurement": "PRISMA enrichment of interactor (log2)", "setting": "RPS19BP1, Q86WX3", "result": 4.76},
      {"measurement": "PRISMA enrichment of interactor (log2)", "setting": "SDAD1, Q9NVU7", "result": 5.66},
      {"measurement": "PRISMA enrichment of interactor (log2)", "setting": "SEMG2, Q02383", "result": 4.15},
      {"measurement": "PRISMA enrichment of interactor (log2)", "setting": "TFB1M, Q8WVM0", "result": 4.94},
      {"measurement": "PRISMA enrichment of interactor (log2)", "setting": "TFG, Q92734", "result": 4.99},
      {"measurement": "PRISMA enrichment of interactor (log2)", "setting": "TMEM109, Q9BVC6", "result": 4.84},
      {"measurement": "PRISMA enrichment of interactor (log2)", "setting": "TRMT112, Q9UI30", "result": 7.08},
      {"measurement": "PRISMA enrichment of interactor (log2)", "setting": "U2SURP, O15042", "result": 6.07},
      {"measurement": "PRISMA enrichment of interactor (log2)", "setting": "UTP20, O75691", "result": 8.56},
      {"measurement": "PRISMA enrichment of interactor (log2)", "setting": "WDR46, O15213", "result": 5.63}
    ]},
    {"binder": "SKDVPRDPRHLPVDF", "note": "[PVT1]", "values": [
      {"measurement": "PRISMA enrichment of interactor (log2)", "setting": "ATP2C1, P98194", "result": 9.99},
      {"measurement": "PRISMA enrichment of interactor (log2)", "setting": "ATP6V0D1, P61421", "result": 6.49},
      {"measurement": "PRISMA enrichment of interactor (log2)", "setting": "AURKB, Q96GD4", "result": 6.3},
      {"measurement": "PRISMA enrichment of interactor (log2)", "setting": "CDC27, P30260", "result": 6.42},
      {"measurement": "PRISMA enrichment of interactor (log2)", "setting": "CFDP1, Q9UEE9", "result": 4.95},
      {"measurement": "PRISMA enrichment of interactor (log2)", "setting": "CHD4, Q14839", "result": 6.36},
      {"measurement": "PRISMA enrichment of interactor (log2)", "setting": "CIAO1, O76071", "result": 4.7},
      {"measurement": "PRISMA enrichment of interactor (log2)", "setting": "COPB2, P35606", "result": 11.8},
      {"measurement": "PRISMA enrichment of interactor (log2)", "setting": "CSDE1, O75534", "result": 5.6},
      {"measurement": "PRISMA enrichment of interactor (log2)", "setting": "HP, P00738", "result": 5},
      {"measurement": "PRISMA enrichment of interactor (log2)", "setting": "MAGOHB, Q96A72", "result": 5.87},
      {"measurement": "PRISMA enrichment of interactor (log2)", "setting": "MORF4L2, Q15014", "result": 5.8},
      {"measurement": "PRISMA enrichment of interactor (log2)", "setting": "MRPL16, Q9NX20", "result": 4.17},
      {"measurement": "PRISMA enrichment of interactor (log2)", "setting": "MRPL41, Q8IXM3", "result": 6.32},
      {"measurement": "PRISMA enrichment of interactor (log2)", "setting": "NEFM, P07197", "result": 4.28},
      {"measurement": "PRISMA enrichment of interactor (log2)", "setting": "PEX11B, O96011", "result": 7.71},
      {"measurement": "PRISMA enrichment of interactor (log2)", "setting": "SRPK2, P78362", "result": 4.44},
      {"measurement": "PRISMA enrichment of interactor (log2)", "setting": "TAOK2, Q9UL54", "result": 9.07},
      {"measurement": "PRISMA enrichment of interactor (log2)", "setting": "TIMM8A, O60220", "result": 6.44},
      {"measurement": "PRISMA enrichment of interactor (log2)", "setting": "TMEM214, Q6NUQ4", "result": 5.64},
      {"measurement": "PRISMA enrichment of interactor (log2)", "setting": "TTN, Q8WZ42", "result": 6.38},
      {"measurement": "PRISMA enrichment of interactor (log2)", "setting": "UBXN7, O94888", "result": 8.86},
      {"measurement": "PRISMA enrichment of interactor (log2)", "setting": "UTP15, Q8TED0", "result": 6.27},
      {"measurement": "PRISMA enrichment of interactor (log2)", "setting": "WDCP, Q9H6R7", "result": 4.36},
      {"measurement": "PRISMA enrichment of interactor (log2)", "setting": "WDR82, Q6UXN9", "result": 4.63}
    ]}
  ]
}
